B1: Adaptor-related protein complex 3 beta- 1 subunit isoform 1 (protein, UniProt O00203 1-1094)
chain: MSSNSFPYNEQSGGGEATELGQEATSTISPSGAFGLFSSDLKKNEDLKQMLESNKDSAKLDAMKRIVGMIAKGKNASELFPAVVKNVASKNIEIKKLVYVYLVRYAEEQQDLALLSISTFQRALKDPNQLIRASALRVLSSIRVPIIVPIMMLAIKEASADLSPYVRKNAAHAIQKLYSLDPEQKEMLIEVIEKLLKDKSTLVAGSVVMAFEEVCPDRIDLIHKNYRKLCNLLVDVEEWGQVVIIHMLTRYARTQFVSPWKEGDELEDNGKNFYESDDDQKEKTDKKKKPYTMDPDHRLLIRNTKPLLQSRNAAVVMAVAQLYWHISPKSEAGIISKSLVRLLRSNREVQYIVLQNIATMSIQRKGMFEPYLKSFYVRSTDPTMIKTLKLEILTNLANEANISTLLREFQTYVKSQDKQFAAATIQTIGRCATNILEVTDTCLNGLVCLLSNRDEIVVAESVVVIKKLLQMQPAQHGEIIKHMAKLLDSITVPVARASILWLIGENCERVPKIAPDVLRKMAKSFTSEDDLVKLQILNLGAKLYLTNSKQTKLLTQYILNLGKYDQNYDIRDRTRFIRQLIVPNVKSGALSKYAKKIFLAQKPAPLLESPFKDRDHFQLGTLSHTLNIKATGYLELSNWPEVAPDPSVRNVEVIELAKEWTPAGKAKQENSAKKFYSESEEEEDSSDSSSDSESESGSESGEQGESGEEGDSNEDSSEDSSSEQDSESGRESGLENKRTAKRNSKAKGKSDSEDGEKENEKSKTSDSSNDESSSIEDSSSDSESESEPESESESRRVTKEKEKKTKQDRTPLTKDVSLLDLDDFNPVSTPVALPTPALSPSLMADLEGLHLSTSSSVISVSTPAFVPTKTHVLLHRMSGKGLAAHYFFPRQPCIFGDKMVSIQITLNNTTDRKIENIHIGEKKLPIGMKMHVFNPIDSLEPEGSITVSMGIDFCDSTQTASFQLCTKDDCFNVNIQPPVGELLLPVAMSEKDFKKEQGVLTGMNETSAVIIAAPQNFTPSVIFQKVVNVANVGAVPSGQDNIHRFAAKTVHSGSLMLVTVELKEGSTAQLIINTEKTVIGSVLLRELKPVLSQG
B2: Mitochondrial 2-oxoglutarate/malate carrier protein (protein, UniProt Q02978 1-314)
chain: MAATASAGAGGIDGKPRTSPKSVKFLFGGLAGMGATVFVQPLDLVKNRMQLSGEGAKTREYKTSFHALTSILKAEGLRGIYTGLSAGLLRQATYTTTRLGIYTVLFERLTGADGTPPGFLLKAVIGMTAGATGAFVGTPAEVALIRMTADGRLPADQRRGYKNVFNALIRITREEGVLTLWRGCIPTMARAVVVNAAQLASYSQSKQFLLDSGYFSDNILCHFCASMISGLVTTAASMPVDIAKTRIQNMRMIDGKPEYKNGLDVLFKVVRYEGFFSLWKGFTPYYARLGPHTVLTFIFLEQMNKAYKRLFLSG
B3: ATP-binding cassette subfamily F member 3 isoform 1 (protein, UniProt Q9NUQ8 1-709)
chain: MATCAEILRSEFPEIDGQVFDYVTGVLHSGSADFESVDDLVEAVGELLQEVSGDSKDDAGIRAVCQRMYNTLRLAEPQSQGNSQVLLDAPIQLSKITENYDCGTKLPGLLKREQSSTVNAKKLEKAEARLKAKQEKRSEKDTLKTSNPLVLEEASASQAGSRKESRLESSGKNKSYDVRIENFDVSFGDRVLLAGADVNLAWGRRYGLVGRNGLGKTTLLKMLATRSLRVPAHISLLHVEQEVAGDDTPALQSVLESDSVREDLLRRERELTAQIAAGRAEGSEAAELAEIYAKLEEIEADKAPARASVILAGLGFTPKMQQQPTREFSGGWRMRLALARALFARPDLLLLDEPTNMLDVRAILWLENYLQTWPSTILVVSHDRNFLNAIATDIIHLHSQRLDGYRGDFETFIKSKQERLLNQQREYEAQQQYRQHIQVFIDRFRYNANRASQVQSKLKMLEKLPELKPVDKESEVVMKFPDGFEKFSPPILQLDEVDFYYDPKHVIFSRLSVSADLESRICVVGENGAGKSTMLKLLLGDLAPVRGIRHAHRNLKIGYFSQHHVEQLDLNVSAVELLARKFPGRPEEEYRHQLGRYGISGELAMRPLASLSGGQKSRVAFAQMTMPCPNFYILDEPTNHLDMETIEALGRALNNFRGGVILVSHDERFIRLVCRELWVCEGGGVTRVEGGFDQYRALLQEQFRREGFL
B4: BRCA1-associated protein (protein, UniProt Q7Z569 1-592)
chain: MSVSLVVIRLELAEHSPVPAGFGFSAAAGEMSDEEIKKTTLASAVACLEGKSPGEKVAIIHQHLGRREMTDVIIETMKSNPDELKTTVEERKSSEASPTAQRSKDHSKECINAAPDSPSKQLPDQISFFSGNPSVEIVHGIMHLYKTNKMTSLKEDVRRSAMLCILTVPAAMTSHDLMKFVAPFNEVIEQMKIIRDSTPNQYMVLIKFRAQADADSFYMTCNGRQFNSIEDDVCQLVYVERAEVLKSEDGASLPVMDLTELPKCTVCLERMDESVNGILTTLCNHSFHSQCLQRWDDTTCPVCRYCQTPEPVEENKCFECGVQENLWICLICGHIGCGRYVSRHAYKHFEETQHTYAMQLTNHRVWDYAGDNYVHRLVASKTDGKIVQYECEGDTCQEEKIDALQLEYSYLLTSQLESQRIYWENKIVRIEKDTAEEINNMKTKFKETIEKCDNLEHKLNDLLKEKQSVERKCTQLNTKVAKLTNELKEEQEMNKCLRANQVLLQNKLKEEERVLKETCDQKDLQITEIQEQLRDVMFYLETQQKINHLPAETRQEIQEGQINIAMASASSPASSGGSGKLPSRKGRSKRGK
B5: Nucleoporin 155 kDa (protein, UniProt O75694 1-1391)
chain: MPSSLLGAAMPASTSAAALQEALENAGRLIDRQLQEDRMYPDLSELLMVSAPNNPTVSGMSDMDYPLQGPGLLSVPNLPEISSIRRVPLPPELVEQFGHMQCNCMMGVFPPISRAWLTIDSDIFMWNYEDGGDLAYFDGLSETILAVGLVKPKAGIFQPHVRHLLVLATPVDIVILGLSYANLQTGSGVLNDSLSGGMQLLPDPLYSLPTDNTYLLTITSTDNGRIFLAGKDGCLYEVAYQAEAGWFSQRCRKINHSKSSLSFLVPSLLQFTFSEDDPILQIAIDNSRNILYTRSEKGVIQVYDLGQDGQGMSRVASVSQNAIVSAAGNIARTIDRSVFKPIVQIAVIENSESLDCQLLAVTHAGVRLYFSTCPFRQPLARPNTLTLVHVRLPPGFSASSTVEKPSKVHRALYSKGILLMAASENEDNDILWCVNHDTFPFQKPMMETQMTAGVDGHSWALSAIDELKVDKIITPLNKDHIPITDSPVVVQQHMLPPKKFVLLSAQGSLMFHKLRPVDQLRHLLVSNVGGDGEEIERFFKLHQEDQACATCLILACSTAACDREVSAWATRAFFRYGGEAQMRFPTTLPPPSNVGPILGSPVYSSSPVPSGSPYPNPSFLGTPSHGIQPPAMSTPVCALGNPATQATNMSCVTGPEIVYSGKHNGICIYFSRIMGNIWDASLVVERIFKSGNREITAIESSVPCQLLESVLQELKGLQEFLDRNSQFAGGPLGNPNTTAKVQQRLIGFMRPENGNPQQMQQELQRKFHEAQLSEKISLQAIQQLVRKSYQALALWKLLCEHQFTIIVAELQKELQEQLKITTFKDLVIRDKELTGALIASLINCYIRDNAAVDGISLHLQDICPLLYSTDDAICSKANELLQRSRQVQNKTEKERMLRESLKEYQKISNQVDLSNVCAQYRQVRFYEGVVELSLTAAEKKDPQGLGLHFYKHGEPEEDIVGLQAFQERLNSYKCITDTLQELVNQSKAAPQSPSVPKKPGPPVLSSDPNMLSNEEAGHHFEQMLKLSQRSKDELFSIALYNWLIQVDLADKLLQVASPFLEPHLVRMAKVDQNRVRYMDLLWRYYEKNRSFSNAARVLSRLADMHSTEISLQQRLEYIARAILSAKSSTAISSIAADGEFLHELEEKMEVARIQLQIQETLQRQYSHHSSVQDAVSQLDSELMDITKLYGEFADPFKLAECKLAIIHCAGYSDPILVQTLWQDIIEKELSDSVTLSSSDRMHALSLKIVLLGKIYAGTPRFFPLDFIVQFLEQQVCTLNWDVGFVIQTMNEIGVPLPRLLEVYDQLFKSRDPFWNRMKKPLHLLDCIHVLLIRYVENPSQVLNCERRRFTNLCLDAVCGYLVELQSMSSSVAVQAITGNFKSLQAKLERLH
B6: ATP-binding cassette subfamily D member 3 (protein, UniProt P28288 1-659)
chain: MAAFSKYLTARNSSLAGAAFLLLCLLHKRRRALGLHGKKSGKPPLQNNEKEGKKERAVVDKVFFSRLIQILKIMVPRTFCKETGYLVLIAVMLVSRTYCDVWMIQNGTLIESGIIGRSRKDFKRYLLNFIAAMPLISLVNNFLKYGLNELKLCFRVRLTKYLYEEYLQAFTYYKMGNLDNRIANPDQLLTQDVEKFCNSVVDLYSNLSKPFLDIVLYIFKLTSAIGAQGPASMMAYLVVSGLFLTRLRRPIGKMTITEQKYEGEYRYVNSRLITNSEEIAFYNGNKREKQTVHSVFRKLVEHLHNFILFRFSMGFIDSIIAKYLATVVGYLVVSRPFLDLSHPRHLKSTHSELLEDYYQSGRMLLRMSQALGRIVLAGREMTRLAGFTARITELMQVLKDLNHGKYERTMVSQQEKGIEGVQVIPLIPGAGEIIIADNIIKFDHVPLATPNGDVLIRDLNFEVRSGANVLICGPNGCGKSSLFRVLGELWPLFGGRLTKPERGKLFYVPQRPYMTLGTLRDQVIYPDGREDQKRKGISDLVLKEYLDNVQLGHILEREGGWDSVQDWMDVLSGGEKQRMAMARLFYHKPQFAILDECTSAVSVDVEGYIYSHCRKVGITLFTVSHRKSLWKHHEYYLHMDGRGNYEFKQITEDTVEFGS
B7: Macrophage-capping protein (protein, UniProt P40121 1-348)
chain: MYTAIPQSGSPFPGSVQDPGLHVWRVEKLKPVPVAQENQGVFFSGDSYLVLHNGPEEVSHLHLWIGQQSSRDEQGACAVLAVHLNTLLGERPVQHREVQGNESDLFMSYFPRGLKYQEGGVESAFHKTSTGAPAAIKKLYQVKGKKNIRATERALNWDSFNTGDCFILDLGQNIFAWCGGKSNILERNKARDLALAIRDSERQGKAQVEIVTDGEEPAEMIQVLGPKPALKEGNPEEDLTADKANAQAAALYKVSDATGQMNLTKVADSSPFALELLISDDCFVLDNGLCGKIYIWKGRKANEKERQAALQVAEGFISRMQYAPNTQVEILPQGHESPIFKQFFKDWK

Protein sequences, listed by entry. Tags and fused reporters are not part of them. Lines headed by an entry give the natural chain unless they say otherwise; changes in a name come on top.
UniProt P70444: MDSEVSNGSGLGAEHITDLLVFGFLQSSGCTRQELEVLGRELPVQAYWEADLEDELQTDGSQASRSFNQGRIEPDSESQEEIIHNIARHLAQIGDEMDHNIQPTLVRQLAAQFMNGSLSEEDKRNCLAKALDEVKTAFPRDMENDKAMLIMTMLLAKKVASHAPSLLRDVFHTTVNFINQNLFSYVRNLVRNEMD
UniProt Q7Z6E9: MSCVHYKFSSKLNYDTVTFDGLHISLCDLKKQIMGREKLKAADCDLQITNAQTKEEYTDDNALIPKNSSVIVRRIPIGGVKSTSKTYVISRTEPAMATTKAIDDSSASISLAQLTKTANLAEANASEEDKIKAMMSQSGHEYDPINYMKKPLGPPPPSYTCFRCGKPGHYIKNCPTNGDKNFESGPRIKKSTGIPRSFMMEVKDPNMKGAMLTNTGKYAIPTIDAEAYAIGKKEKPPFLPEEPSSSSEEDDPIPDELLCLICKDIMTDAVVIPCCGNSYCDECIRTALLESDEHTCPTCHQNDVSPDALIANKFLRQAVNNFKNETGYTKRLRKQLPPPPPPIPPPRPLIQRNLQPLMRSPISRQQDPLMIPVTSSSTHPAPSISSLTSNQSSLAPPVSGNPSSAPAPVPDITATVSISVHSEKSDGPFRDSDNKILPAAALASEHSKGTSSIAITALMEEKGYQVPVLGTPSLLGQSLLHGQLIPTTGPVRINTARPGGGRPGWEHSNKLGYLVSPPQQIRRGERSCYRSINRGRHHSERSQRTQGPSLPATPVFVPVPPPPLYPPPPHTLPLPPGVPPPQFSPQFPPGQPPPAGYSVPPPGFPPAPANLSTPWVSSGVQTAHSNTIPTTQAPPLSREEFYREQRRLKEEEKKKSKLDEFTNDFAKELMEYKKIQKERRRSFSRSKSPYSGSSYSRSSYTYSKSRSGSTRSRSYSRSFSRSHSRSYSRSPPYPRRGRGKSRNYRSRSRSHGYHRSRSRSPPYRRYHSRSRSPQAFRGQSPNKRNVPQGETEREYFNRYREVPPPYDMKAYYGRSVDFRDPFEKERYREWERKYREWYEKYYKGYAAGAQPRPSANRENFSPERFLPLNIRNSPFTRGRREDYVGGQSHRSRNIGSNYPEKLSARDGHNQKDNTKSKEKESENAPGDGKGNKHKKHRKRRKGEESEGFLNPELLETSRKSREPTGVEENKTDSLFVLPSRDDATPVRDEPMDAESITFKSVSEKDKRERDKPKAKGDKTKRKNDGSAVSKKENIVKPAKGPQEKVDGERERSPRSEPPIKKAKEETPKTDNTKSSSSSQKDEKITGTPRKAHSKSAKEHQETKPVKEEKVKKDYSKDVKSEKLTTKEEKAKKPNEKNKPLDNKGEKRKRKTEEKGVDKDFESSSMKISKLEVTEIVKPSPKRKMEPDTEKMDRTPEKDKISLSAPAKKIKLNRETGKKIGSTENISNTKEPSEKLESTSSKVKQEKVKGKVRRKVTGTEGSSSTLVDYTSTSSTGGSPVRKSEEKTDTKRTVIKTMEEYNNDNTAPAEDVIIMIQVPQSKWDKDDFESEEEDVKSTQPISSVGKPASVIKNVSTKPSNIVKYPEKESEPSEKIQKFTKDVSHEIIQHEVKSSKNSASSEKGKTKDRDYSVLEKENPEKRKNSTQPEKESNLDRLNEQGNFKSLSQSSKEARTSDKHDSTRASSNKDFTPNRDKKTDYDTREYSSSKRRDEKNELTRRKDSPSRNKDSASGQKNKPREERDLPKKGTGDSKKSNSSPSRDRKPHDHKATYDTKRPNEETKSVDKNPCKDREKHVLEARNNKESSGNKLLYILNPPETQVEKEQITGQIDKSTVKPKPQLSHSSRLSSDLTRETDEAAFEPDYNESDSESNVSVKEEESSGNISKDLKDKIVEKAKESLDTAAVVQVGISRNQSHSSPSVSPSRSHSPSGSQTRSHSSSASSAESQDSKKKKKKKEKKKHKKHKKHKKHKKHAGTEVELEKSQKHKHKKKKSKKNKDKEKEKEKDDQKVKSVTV
UniProt Q12873: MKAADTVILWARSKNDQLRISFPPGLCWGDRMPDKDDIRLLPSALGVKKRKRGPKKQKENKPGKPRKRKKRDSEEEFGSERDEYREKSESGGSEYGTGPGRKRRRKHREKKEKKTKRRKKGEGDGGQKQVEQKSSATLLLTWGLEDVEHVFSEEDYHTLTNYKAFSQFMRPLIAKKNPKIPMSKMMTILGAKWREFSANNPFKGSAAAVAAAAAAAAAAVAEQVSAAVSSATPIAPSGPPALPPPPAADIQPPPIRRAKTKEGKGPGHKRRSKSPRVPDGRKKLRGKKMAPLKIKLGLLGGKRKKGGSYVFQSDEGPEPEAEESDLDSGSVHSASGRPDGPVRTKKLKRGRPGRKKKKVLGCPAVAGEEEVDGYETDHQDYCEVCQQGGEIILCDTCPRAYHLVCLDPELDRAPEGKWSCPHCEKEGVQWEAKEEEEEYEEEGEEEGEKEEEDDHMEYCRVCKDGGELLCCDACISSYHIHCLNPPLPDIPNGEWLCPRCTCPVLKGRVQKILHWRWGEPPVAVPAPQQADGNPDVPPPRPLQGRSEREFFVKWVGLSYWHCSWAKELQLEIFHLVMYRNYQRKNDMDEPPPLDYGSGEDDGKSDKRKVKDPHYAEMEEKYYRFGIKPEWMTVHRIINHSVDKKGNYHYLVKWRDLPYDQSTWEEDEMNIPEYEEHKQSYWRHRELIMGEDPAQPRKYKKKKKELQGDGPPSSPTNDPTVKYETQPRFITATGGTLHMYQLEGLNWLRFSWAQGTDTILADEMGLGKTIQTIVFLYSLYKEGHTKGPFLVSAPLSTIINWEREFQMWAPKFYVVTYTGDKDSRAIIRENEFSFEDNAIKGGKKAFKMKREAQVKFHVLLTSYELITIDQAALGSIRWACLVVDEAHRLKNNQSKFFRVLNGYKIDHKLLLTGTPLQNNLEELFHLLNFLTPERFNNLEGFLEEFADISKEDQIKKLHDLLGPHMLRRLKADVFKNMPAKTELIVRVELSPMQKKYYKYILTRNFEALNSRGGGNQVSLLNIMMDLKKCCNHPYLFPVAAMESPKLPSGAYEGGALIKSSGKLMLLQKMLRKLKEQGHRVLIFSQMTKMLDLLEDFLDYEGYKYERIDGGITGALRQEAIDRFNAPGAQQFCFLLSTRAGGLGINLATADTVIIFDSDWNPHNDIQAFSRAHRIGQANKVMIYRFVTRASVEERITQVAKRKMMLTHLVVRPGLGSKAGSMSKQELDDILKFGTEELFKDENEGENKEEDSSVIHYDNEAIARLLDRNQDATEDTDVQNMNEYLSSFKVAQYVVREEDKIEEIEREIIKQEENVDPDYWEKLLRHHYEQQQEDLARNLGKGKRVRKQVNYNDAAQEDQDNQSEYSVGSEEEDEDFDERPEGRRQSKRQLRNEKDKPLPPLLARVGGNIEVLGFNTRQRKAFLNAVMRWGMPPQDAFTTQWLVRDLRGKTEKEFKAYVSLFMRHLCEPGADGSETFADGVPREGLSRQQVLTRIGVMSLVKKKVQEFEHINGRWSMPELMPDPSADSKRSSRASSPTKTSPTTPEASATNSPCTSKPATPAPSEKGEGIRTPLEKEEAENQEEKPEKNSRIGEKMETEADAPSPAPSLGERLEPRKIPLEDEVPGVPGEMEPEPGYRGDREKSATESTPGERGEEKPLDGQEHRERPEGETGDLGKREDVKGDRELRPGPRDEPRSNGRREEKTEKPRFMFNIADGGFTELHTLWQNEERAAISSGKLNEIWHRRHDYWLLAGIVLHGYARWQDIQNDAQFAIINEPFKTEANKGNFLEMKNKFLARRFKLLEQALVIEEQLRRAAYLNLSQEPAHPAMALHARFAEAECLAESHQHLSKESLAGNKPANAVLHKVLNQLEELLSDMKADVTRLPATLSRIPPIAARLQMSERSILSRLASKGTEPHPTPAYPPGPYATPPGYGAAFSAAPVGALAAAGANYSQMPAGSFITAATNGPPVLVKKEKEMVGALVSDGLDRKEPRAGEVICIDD
UniProt P11413: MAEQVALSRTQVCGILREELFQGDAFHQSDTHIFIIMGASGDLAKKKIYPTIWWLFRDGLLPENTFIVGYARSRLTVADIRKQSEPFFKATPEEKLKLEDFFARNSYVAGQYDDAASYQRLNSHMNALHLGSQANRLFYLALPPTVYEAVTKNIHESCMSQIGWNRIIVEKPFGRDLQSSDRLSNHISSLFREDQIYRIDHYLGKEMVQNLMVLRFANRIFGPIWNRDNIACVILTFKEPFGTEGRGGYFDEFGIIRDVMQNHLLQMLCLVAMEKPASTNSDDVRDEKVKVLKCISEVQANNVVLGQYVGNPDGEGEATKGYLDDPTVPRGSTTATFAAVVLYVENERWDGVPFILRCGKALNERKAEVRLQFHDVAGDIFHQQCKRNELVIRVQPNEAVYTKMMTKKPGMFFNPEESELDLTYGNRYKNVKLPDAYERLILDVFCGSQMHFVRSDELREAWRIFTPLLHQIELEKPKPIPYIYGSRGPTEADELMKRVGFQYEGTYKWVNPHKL
UniProt Q07812: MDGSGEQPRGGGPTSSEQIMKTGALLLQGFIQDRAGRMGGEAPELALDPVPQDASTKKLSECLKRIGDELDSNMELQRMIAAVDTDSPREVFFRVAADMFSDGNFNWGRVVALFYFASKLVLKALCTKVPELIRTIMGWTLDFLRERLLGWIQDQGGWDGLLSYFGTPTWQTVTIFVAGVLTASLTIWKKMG
UniProt Q9BR76: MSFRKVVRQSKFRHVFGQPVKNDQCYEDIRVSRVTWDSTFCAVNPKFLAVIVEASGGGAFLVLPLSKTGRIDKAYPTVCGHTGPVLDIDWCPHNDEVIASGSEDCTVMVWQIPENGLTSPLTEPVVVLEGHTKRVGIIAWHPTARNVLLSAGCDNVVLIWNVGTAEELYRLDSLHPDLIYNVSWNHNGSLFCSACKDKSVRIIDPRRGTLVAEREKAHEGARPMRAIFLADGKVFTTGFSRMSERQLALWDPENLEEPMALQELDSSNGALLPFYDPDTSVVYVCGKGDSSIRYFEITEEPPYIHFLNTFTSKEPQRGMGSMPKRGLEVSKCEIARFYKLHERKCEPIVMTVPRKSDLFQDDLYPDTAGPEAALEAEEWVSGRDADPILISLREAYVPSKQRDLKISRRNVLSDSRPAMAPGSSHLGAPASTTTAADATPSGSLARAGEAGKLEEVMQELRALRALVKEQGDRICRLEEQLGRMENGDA
UniProt O00151: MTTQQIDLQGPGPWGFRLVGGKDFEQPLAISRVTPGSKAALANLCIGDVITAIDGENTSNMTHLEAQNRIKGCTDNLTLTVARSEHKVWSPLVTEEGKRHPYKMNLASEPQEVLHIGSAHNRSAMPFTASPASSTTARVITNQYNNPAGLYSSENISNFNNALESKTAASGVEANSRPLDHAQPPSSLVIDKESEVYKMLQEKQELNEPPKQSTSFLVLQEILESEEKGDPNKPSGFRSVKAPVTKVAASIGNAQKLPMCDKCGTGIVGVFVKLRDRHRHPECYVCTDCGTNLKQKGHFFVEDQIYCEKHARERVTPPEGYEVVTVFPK
UniProt O75367: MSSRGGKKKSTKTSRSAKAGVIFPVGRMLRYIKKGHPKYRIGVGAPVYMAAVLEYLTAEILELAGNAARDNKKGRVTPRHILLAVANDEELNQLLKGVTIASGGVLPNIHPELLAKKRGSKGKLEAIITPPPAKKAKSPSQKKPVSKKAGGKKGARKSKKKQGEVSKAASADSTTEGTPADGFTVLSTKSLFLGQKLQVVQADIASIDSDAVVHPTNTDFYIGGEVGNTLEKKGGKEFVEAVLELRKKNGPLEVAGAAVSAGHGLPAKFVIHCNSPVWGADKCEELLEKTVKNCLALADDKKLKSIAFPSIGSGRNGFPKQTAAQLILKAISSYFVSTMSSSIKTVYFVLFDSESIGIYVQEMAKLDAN

No constants are given. Whether binding was seen depends on the method and setting. In cells and extracts the contact can be indirect. These calls come from enrichment with a bait or labelling near it, and not all partners need be listed.

In this test the target is mBidWT–BirA* (mouse) (UniProt P70444). Kind of test: proximity labelling; BioID in HeLa cells stably expressing BirA* baits; 50 µM biotin for 16 h with nocodazole (mitotic enrichment) or DMSO (unsynchronised); lysis in RIPA, streptavidin-affinity purification, label-free LC–MS/MS (Progenesis QI); enrichment against the paired venus-BirA* control; three independent experiments.
On to “E3 ubiquitin–protein ligase RBBP6 (from UniProt Q7Z6E9 1-1792)”, for which the binding result is given as “binds”.
“Protein AHNAK2 (from UniProt Q8IVF2 1-5795)”: the binding entry was “binds”.
On to “Chromodomain-helicase-DNA-binding protein 3 (from UniProt Q12873 1-2000)”, for which the binding entry was “binds”.
Take “Glucose-6-phosphate 1 dehydrogenase (from UniProt P11413 1-515)”: the binding result is listed as “binds”.
In the case of Bax (from UniProt Q07812 1-192), the binding result is listed as “binds weakly”.
Consider Coronin (from UniProt Q9BR76 1-489), for which the binding entry is recorded as “binds”.
“Chromodomain-helicase-DNA-binding protein 5 (from UniProt Q8TDI0 1-1954)”: the binding entry is “binds”.
For the molecule “PDZ and LIM domain protein 1 (from UniProt O00151 1-329)”, the binding result is given as “binds”.
Regarding Histone H2A (from UniProt O75367 1-369), the binding entry is “binds”.
Consider “Protein SON (from UniProt P18583 1-2426)”, for which the binding entry is given as “binds”.
The entry for “Signal transducer and activator of transcription 1-alpha/beta (from UniProt P42224 1-750)” is “binds”; for B1 it is “binds”.
For the molecule B2, the binding result is given as “binds”.
For B3, the binding entry is listed as “binds”.
The entry for B4 is “binds”.
As to B5, the binding entry is recorded as “binds”.
As to B6, the binding entry is on record as “binds”.
As for B7, the binding entry was “binds”.

For the origin of these results see article PMC7567853.
